These results are taken from patent US20040205843A1.

Protein sequences, listed by entry. Tags and fused reporters are not part of them. Lines headed by an entry give the natural chain unless they say otherwise; changes in a name come on top.
UniProt P03567: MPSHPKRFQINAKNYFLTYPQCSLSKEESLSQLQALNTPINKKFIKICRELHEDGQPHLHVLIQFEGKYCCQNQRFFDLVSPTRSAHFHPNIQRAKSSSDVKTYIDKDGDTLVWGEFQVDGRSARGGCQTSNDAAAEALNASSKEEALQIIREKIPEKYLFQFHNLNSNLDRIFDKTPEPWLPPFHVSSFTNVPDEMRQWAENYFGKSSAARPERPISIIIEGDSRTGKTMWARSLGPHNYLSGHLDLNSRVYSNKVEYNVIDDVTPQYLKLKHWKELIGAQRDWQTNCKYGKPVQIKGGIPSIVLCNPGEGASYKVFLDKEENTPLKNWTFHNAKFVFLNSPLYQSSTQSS

The experiment concerns the target Full length GST-AL1 1-352 (tomato golden mosaic virus (TGMV)) (UniProt P03567). Kind of experiment: GST co-purification from insect cells, immunoblot. A general note: A western blot detects proteins with antibodies after separation by electrophoresis.

No constants are given. Whether binding was seen depends on the method and setting. In cells and extracts the contact can be indirect. Some results given as binding are weak or reduced against the parent protein; the word gives no strength.

On to “AL1 160-352 (from UniProt P03567 160-352)”, for which the binding entry was “binds”.
